Laboratory results from paper PMC12130850.
Substitutions are numbered along the chain they refer to. Results are given in words; binding and its absence hold for the method and conditions named. For part of these data: Binding calls can cover weak binding; strength is not graded here. For part of these data: Tags and fused reporters may be left off the sequences shown. For part of these data: In cells and extracts the contact can be indirect. Values belong to the molecule of their own block, whether it stands above or below them.

Experiments:
[1] = molecular target: T1, RAM1 mutant m1 (H320 substituted to alanine), yeast two-hybrid fusion (L. japonicus); experiment: two-hybrid; GAL4-based Y2H; wild-type and mutant versions of RAM1 as bait, five AM-induced WRI transcription factors as prey (by the legend); 3-AT
T1 sequence: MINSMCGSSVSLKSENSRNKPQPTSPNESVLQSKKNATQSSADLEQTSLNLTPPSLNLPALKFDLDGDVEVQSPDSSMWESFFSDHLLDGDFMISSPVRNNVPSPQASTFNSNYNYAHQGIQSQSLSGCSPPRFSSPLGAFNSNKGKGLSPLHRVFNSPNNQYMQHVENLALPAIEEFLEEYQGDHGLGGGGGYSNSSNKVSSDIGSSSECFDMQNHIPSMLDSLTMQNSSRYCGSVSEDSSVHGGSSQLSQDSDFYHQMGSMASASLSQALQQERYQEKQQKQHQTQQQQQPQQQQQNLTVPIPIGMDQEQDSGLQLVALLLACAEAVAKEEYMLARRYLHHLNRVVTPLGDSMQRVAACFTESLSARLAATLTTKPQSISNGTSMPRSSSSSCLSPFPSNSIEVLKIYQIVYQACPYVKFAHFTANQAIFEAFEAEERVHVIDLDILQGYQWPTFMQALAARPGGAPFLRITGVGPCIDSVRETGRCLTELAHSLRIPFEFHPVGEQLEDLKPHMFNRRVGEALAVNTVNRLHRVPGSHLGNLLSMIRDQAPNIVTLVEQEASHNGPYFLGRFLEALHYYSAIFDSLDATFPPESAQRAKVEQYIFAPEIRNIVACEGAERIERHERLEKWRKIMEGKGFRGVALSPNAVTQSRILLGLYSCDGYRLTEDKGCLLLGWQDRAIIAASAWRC

[2] = molecular target: T2, RAM1 mutant m3 (all interacting residues of region r3 changed to alanine), yeast two-hybrid fusion (L. japonicus); experiment: as above
T2 sequence: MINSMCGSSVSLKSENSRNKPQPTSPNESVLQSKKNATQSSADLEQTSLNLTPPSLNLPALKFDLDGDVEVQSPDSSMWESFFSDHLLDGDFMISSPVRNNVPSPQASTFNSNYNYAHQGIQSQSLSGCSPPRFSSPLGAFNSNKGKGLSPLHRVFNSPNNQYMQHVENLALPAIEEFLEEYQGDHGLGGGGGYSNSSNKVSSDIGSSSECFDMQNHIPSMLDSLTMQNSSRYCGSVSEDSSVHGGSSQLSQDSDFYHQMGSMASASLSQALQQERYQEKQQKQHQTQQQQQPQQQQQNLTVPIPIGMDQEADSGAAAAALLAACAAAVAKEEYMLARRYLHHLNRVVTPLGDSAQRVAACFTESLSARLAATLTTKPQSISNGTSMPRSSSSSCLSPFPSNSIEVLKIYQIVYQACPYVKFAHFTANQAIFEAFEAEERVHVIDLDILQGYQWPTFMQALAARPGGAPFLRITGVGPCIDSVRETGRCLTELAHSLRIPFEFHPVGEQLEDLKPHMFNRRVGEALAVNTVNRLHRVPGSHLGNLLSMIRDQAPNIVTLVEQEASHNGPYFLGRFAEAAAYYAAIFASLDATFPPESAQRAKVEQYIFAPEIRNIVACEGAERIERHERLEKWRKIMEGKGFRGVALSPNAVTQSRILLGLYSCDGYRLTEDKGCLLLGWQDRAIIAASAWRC

[3] = molecular target: T3, RAM1m2 (V319, L323, L576, L579 and H580 substituted with alanine), yeast two-hybrid fusion (L. japonicus); experiment: as above
T3 sequence: T1 sequence with V319A, A320H, L323A, L576A, L579A, H580A

[4] = molecular target: WRI3, yeast two-hybrid fusion (L. japonicus); experiment: two-hybrid; GAL4-based Y2H; RAM1 and its truncated versions as prey (AD), WRI proteins, CBX1 and its truncated or mutant versions as bait (BD); yeast growth without histidine and with 3-AT
[5] = molecular target: WRI5a, yeast two-hybrid fusion (L. japonicus); experiment: as above
[6] = molecular target: WRI5b, yeast two-hybrid fusion (L. japonicus); experiment: as above
[7] = molecular target: WRI5c, yeast two-hybrid fusion (L. japonicus); experiment: as above
[8] = molecular target: CBX1 fused to a half of Citrine for BiFC (L. japonicus); experiment: split reporter; BiFC with halves of Citrine in cortex cells of colonized L. japonicus hairy roots, 5 wpi; fusions under their endogenous promoters
[9] = molecular target: WRI5b fused to a half of Citrine for BiFC (L. japonicus); experiment: as above

Molecule: WRI3, yeast two-hybrid fusion (L. japonicus)
binding [1]: binds
binding [2]: no binding
binding [3]: no binding

Molecule: WRI5a, yeast two-hybrid fusion (L. japonicus)
binding [1]: binds
binding [2]: no binding
binding [3]: no binding

Molecule: WRI5b, yeast two-hybrid fusion (L. japonicus)
binding [1]: binds
binding [2]: no binding
binding [3]: no binding

B1: RAM1-M5, truncated version of RAM1 (RAM1 GRAS domain), yeast two-hybrid fusion (domain or fragment, UniProt A0A145P7T2 309-692)
chain: DQEQDSGLQLVHLLLACAEAVAKEEYMLARRYLHHLNRVVTPLGDSMQRVAACFTESLSARLAATLTTKPQSISNGTSMPRSSSSSCLSPFPSNSIEVLKIYQIVYQACPYVKFAHFTANQAIFEAFEAEERVHVIDLDILQGYQWPTFMQALAARPGGAPFLRITGVGPCIDSVRETGRCLTELAHSLRIPFEFHPVGEQLEDLKPHMFNRRVGEALAVNTVNRLHRVPGSHLGNLLSMIRDQAPNIVTLVEQEASHNGPYFLGRFLEALHYYSAIFDSLDATFPPESAQRAKVEQYIFAPEIRNIVACEGAERIERHERLEKWRKIMEGKGFRGVALSPNAVTQSRILLGLYSCDGYRLTEDKGCLLLGWQDRAIIAASAWR
binding [4]: binds
binding [5]: binds
binding [6]: binds
binding [7]: binds

More lines, now with the values ahead:

binding [1]: binds
binding [2]: no binding
binding [3]: no binding
Molecule: WRI5c, yeast two-hybrid fusion (L. japonicus)

binding [8]: no binding
binding [9]: no binding
B2: RAM1m3 of the BiFC assay (protein, UniProt A0A145P7T2 1-693)
chain: T2 sequence
